Entries after “also recorded” stand apart in the source; their conditions may differ. At least one compound was matched to its structure with a doubt left.
Experiments:
jack bean urease = jack bean urease (Canavalia ensiformis (Jack bean) (Dolichos ensiformis), UniProt P07374); assay type: biochemical; set-up: Vmax / Vmaxapp: unit not given here; details: for Type of Inhibition: from Lineweaver-Burk plot; for Vmaxapp / Kmapp: in presence of inhibitor; for Kmapp: substrate urea; for Vmax: without inhibitor
Experimental: The Lineweaver-Burk plot was used to determine the type of inhibition, while Dixon plot and secondary replete were used for the determination of dissociation constants (Ki). The Ki, Km, and Vmax were determined by non-linear regression equation. The Ki value was determined from lineweaver-Burk plot. For the calculation of Ki values, initially the 1/Vmaxapp values were determine on y-axis of lineweaver-Burk plot at each junction point of lines of every inhibitor concentration. Secondly the slope of the inhibitor at concentration of each line were determined on Lineweaver-Burk plot and re-plotted against the inhibitor concentrations.
Graphs were plotted using GraFit program. Values of the correlation coefficients, slopes, intercepts, and their standard errors were obtained by the linear regression analysis using the same program. Each point in the constructed graphs represents the mean of the three experiments.
In mixed-type of inhibition, both Km and Vmax are affected.
Three different methods were applied to determine the type of inhibition and Ki values for these inhibitors. Firstly by using Lineweaver-Burk plots the reciprocal of the rate of the reaction were plotted against the reciprocal of substrate concentration to monitor the effect of inhibitor on both Km and Vmax. Secondly the secondary replots of Lineweaver-Burk plots were plotted to determine the Ki value. The Ki values were calculated by plotting the slope of each line in the Lineweaver-Burk plots against the different concentration of inhibitors.

[1] = target: Jack bean (Canavalia ensiformis) urease (Canavalia ensiformis (Jack bean) (Dolichos ensiformis), UniProt P07374); assay type: biochemical; details: for urease inhibitory activity compared with standard thiourea: in words
Experimental: The Schiff bases of thiazoles were evaluated for their urease inhibitory potential by using the following protocol:
Finally the results were processed by software SoftMax Pro (Molecular Devices, CA, USA), MS-Excel and Ez-fit. The Percent inhibition was calculated from the formula given below: 100−(OD of test compound/OD of control)×100
The IC50 values were then calculated using the EZ-Fit Enzyme Kinetics program (Perrella Scientific Inc., Amherst, U.S.A.).

C(=Nc1nc(-c2ccccc2)cs1)c1c[nH]c2ccccc12 [Compound 2, N-[1H-indol-3-yl-methylidene]-N-(4-phenyl-1,3-thiazol-2-yl)amine]
Type of Inhibition (jack bean urease): Competitive inhibition
Vmaxapp (jack bean urease): 38.2
Kmapp (jack bean urease): 4.3 mM
Vmax (jack bean urease): 38.2

Oc1ccc(Cl)cc1C=Nc1nc(-c2ccccc2)cs1 [Compound 8, 4-Chloro-2-{[(4-phenyl-1,3-thiazol-2-yl)imino]methyl} phenol]
Type of Inhibition (jack bean urease): mixed-type; also recorded: Mixed inhibition
Vmaxapp (jack bean urease): 5.02
Kmapp (jack bean urease): 2.4 mM
Vmax (jack bean urease): 19.3

Cc1ccc(C=Nc2nc(-c3ccccc3)cs2)o1 [Compound 10, N-[(5-Methyl-2-furyl)methylidene]-N-(4-phenyl-1,3-thiazol-2-yl)amine]
Type of Inhibition (jack bean urease): Competitive inhibition
Vmaxapp (jack bean urease): 10.34
Kmapp (jack bean urease): 2.92 mM
Vmax (jack bean urease): 20.04

C(=Nc1nc(-c2ccccc2)cs1)c1cccc2ccccc12 [Compound 21, N-[1-Naphthyl-methylidene]-N-(4-phenyl-1,3-thiazol-2-yl)amine]
urease inhibitory activity compared with standard thiourea [1]: significant urease inhibitory activity, comparable to standard
inhibitory potential, times less than compound 1 ([1]; ratio of IC50 values): 8 times

COc1ccc(C=Nc2nc(-c3ccccc3)cs2)c(OC)c1OC [Compound 27, 4-Phenyl-N-[(2,3,4-trimethoxyphenyl)methylidene]-1,3-thiazol-2-amine]
urease inhibitory activity compared with standard thiourea [1]: significant urease inhibitory activity, comparable to standard
